1 sequence from publication PMC5996148 can be followed below.

Several values for one entry are separate records, joined by “and”; a condition that tells them apart may be missing. Identical values can stand only once. The list shows a part of the results. For some of these results: The source does not settle which construct or isoform was used.

Some test systems named below: CBR4 (human); CBS (human); CCBL1 (human); CCBL2 (human); CCDC107 (human); CCDC12 (human); CCDC126 (human); CCDC14 (human).
Common to all, as to assay: protein microarray (ProtoArray v5.0), streptavidin-Alexa Fluor 647
What all share (details): 3'-biotin; 20 mM Tris (pH 7.5), 5 mM MgCl2, 100 mM KCl, 0.1% Tween-20, A/T-rich and random oligonucleotide blockers; temperature not stated; high values mean tight binding

The target of the next assay is T1, CCDC115 (UniProt Q96NT0).
T1 sequence: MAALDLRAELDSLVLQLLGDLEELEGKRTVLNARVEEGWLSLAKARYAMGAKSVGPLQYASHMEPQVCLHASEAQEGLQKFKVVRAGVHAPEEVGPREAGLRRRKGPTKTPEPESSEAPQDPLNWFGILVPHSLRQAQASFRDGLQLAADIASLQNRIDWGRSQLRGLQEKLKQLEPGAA

The next assay has as its target T2, CCDC21 (UniProt Q6P2H3).
T2 sequence: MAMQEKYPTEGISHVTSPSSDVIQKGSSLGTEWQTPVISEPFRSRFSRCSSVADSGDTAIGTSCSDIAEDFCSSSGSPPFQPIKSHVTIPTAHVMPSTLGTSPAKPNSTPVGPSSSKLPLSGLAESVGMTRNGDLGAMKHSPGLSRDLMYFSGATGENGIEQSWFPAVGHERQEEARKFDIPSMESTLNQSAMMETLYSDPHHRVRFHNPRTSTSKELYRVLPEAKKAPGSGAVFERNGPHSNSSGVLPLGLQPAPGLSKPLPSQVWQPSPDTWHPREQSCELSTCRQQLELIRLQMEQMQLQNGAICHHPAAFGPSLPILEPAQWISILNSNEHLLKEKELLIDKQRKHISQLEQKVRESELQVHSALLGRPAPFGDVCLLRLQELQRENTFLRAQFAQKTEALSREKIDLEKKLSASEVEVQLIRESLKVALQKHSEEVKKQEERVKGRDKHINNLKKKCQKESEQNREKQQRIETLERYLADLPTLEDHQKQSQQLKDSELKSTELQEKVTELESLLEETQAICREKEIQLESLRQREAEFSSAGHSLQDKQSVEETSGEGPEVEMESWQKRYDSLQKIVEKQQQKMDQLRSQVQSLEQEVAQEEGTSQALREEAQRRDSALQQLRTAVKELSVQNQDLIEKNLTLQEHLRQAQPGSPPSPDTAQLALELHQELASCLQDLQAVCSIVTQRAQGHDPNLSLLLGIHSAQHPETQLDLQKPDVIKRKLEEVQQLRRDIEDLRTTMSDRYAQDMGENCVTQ

On to “GGGAGGCTGAGGCAGG [G4-1 biotinylated (PQS2)]”, for which the binding signal with CBR4 (human) was -0.34 z-score; in the assay with CBS (human) it was -0.359 z-score; with CCBL1 (human) it was -0.244 z-score; with CCBL2 (human), -0.296 z-score; in the assay on CCDC107 (human), -0.358 z-score and -0.282 z-score; with CCDC115, -0.342 z-score. For the same sequence, the binding signal was -0.294 z-score in the assay on CCDC12 (human), -0.305 z-score with CCDC126 (human), -0.305 z-score with CCDC14 (human) and -0.287 z-score with CCDC21.
